# Screening data, single-dose tests

Chains of the proteins cited; added tags and fusions are not shown.
UniProt P9WPC5, whole entry: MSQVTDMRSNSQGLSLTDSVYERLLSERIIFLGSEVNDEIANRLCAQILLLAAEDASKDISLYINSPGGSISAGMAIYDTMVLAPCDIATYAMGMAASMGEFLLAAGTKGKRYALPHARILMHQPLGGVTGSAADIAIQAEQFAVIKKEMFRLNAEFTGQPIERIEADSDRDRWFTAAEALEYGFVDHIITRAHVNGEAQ
UniProt P9WPC3, whole entry partner: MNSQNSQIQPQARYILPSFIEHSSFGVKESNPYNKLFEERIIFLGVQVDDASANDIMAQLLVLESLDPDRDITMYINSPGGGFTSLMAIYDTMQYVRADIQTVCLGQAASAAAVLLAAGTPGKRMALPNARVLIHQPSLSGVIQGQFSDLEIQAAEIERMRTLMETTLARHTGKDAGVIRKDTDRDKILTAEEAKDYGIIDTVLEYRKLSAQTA
UniProt P9WNZ1, whole entry: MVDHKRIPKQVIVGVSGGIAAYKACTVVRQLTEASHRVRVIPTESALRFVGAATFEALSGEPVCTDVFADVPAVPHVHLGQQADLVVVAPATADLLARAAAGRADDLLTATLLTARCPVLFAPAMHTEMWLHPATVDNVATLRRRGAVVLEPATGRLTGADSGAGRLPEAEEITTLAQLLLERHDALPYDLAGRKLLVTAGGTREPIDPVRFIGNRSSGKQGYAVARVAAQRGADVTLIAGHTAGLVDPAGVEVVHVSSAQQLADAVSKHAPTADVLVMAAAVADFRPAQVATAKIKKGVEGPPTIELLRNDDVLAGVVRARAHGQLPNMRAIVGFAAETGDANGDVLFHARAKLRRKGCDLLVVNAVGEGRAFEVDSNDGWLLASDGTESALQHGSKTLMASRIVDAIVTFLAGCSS

Toxoplasma: 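Assay of Toxoplasma gondii numbers, read through their beta-galactosidase reporter with a colour substrate. Concentration: 10 µM. The record gives no direction; the compounds picked for IC50 retests had high values, so higher reads as fewer parasites. About 67,000 compounds were tested under these conditions; 0.38% (about 260) showed 50% or more at least once.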
ClpP1P2: 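ClpP1P2, Mycobacterium tuberculosis (UniProt P9WPC5 and UniProt P9WPC3). Protease assay of ClpP1P2, read by the AMC dye that it sets free. Compounds at 50 µM. Higher reads as stronger inhibition, judged from the few compounds that gave an IC50. Most other retested compounds had strongly negative values. About 69,000 compounds were tested under these conditions; 0.015% (about 10) showed 50% or more at least once.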
T. brucei: 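Whole-parasite assay of Trypanosoma brucei over 72 hours; the read-out is not stated. Compounds at 30 µM. Higher reads as stronger inhibition (inferred: compounds with an IC50 in retests scored well above the rest). Values scatter widely below zero; nearly all retest evidence comes from the higher of the two concentrations used. Of about 64,000 compounds tested this way, about 940 (1.5%) reached 50% or more in at least one test.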
CoaBC: 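Coenzyme A biosynthesis protein CoaBC, Mycobacterium tuberculosis (UniProt P9WNZ1). Enzyme assay of CoaBC with a phosphate dye (Biomol Green) read at 650 nm. Concentration: 30 µM. Direction is inferred from only a few compounds that gave an IC50; most scored high, so higher reads as stronger inhibition. Most strong results did not repeat in a second test. About 67,000 compounds were tested under these conditions; 0.06% (about 40) showed 50% or more at least once.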

Values are the deposited “Percent Effect”, in %. How 0% and 100% were set is not recorded. Most values in the screen are low, and negative values occur. The compounds are a random part of those screened. Two or more numbers in one place are separate tests of the same structure; such repeats can differ widely. A dash means the value is not listed here; it may have been measured.

SMILES,Toxoplasma,ClpP1P2,T. brucei,CoaBC
CO[C@H]1CCN(Cc2ccoc2)C[C@@H]1Cc1ccccc1.O=C(O)C(F)(F)F,5.665,-,-12.49,-
COc1ccc(C)nc1NC(=O)CCc1c(C)nn(C)c1C,2.065,-8.242,-13.38,6.497
O=C(c1ccc(Cl)cc1)N1CCC2(CC1)C(=O)Nc1ccccc12,5.27,-6.88,-282.6,12.62
COc1c(CNCc2ccc(N3CCOCC3)nc2)c(C)nn1C,4.201,0.7762,-9.001,7.851
CC(=O)NCCCSC1CCN(c2ccccc2F)C1=O (stereo not shown),6.659,-8.966,-36.42,2.317
CC1=Nc2c(c(=O)[nH]n2C(C)C)C(c2ccc(F)c(F)c2)S1 (stereo not shown),13.63,2.376,25.34,6.057
Nc1ccc(C(=O)N2CCCC(c3nccn3Cc3cscn3)C2)cn1 (stereo not shown),1.217,-3.591,-13.98,1.086
O=C(CCc1ccc2c(c1)CCO2)Nc1nnn[nH]1,3.015,-5.235,-17.33,0.4843
CCc1c(C(=O)N2CCOC(C)(C)C2)cnn1-c1ccccn1,-0.9201,1.698,-2.845,4.418
Cc1cccc(CN2C[C@@H]3COC[C@]3(COc3cccnc3)C2)n1,-,-10.56,-,6.274
CC(=O)c1ccc(S(=O)(=O)N2CCC(c3n[nH]c(C)n3)CC2)cc1,-0.5394,-0.5521,-116,-
CC(C)CN1CC(O)CN(S(=O)(=O)c2ccc(F)cc2)CC1=O (stereo not shown),-27.8,0.8531,-21.72,-1.211
O=C1CCC2(CCOC2)CN1Cc1nc2ccc(Cl)cc2[nH]1 (stereo not shown),2.426,-8.609,-5.566,-2.893
Cc1ccccc1CN1CCCC1c1cccc(Nc2nccs2)n1 (stereo not shown),-20.65,-3.711,5.594,25.42 and 8.763
CCS(=O)(=O)Nc1ccc(C(=O)NCCCN2CCCC2)cc1,-0.1508,-3.834,-0.484,-0.6748
CCS(=O)(=O)N1CCC2(CC1)CC(Oc1ccccn1)CO2 (stereo not shown),-,-14.74,-,2.662
Cc1nc(CN(C)C2CCN(Cc3c(C)noc3C)C2)no1 (stereo not shown),1.506,-6.521,14.38,-5.832
COCCCN1C(=O)c2ccc(C(=O)NCCc3c[nH]cn3)cc2C1=O,-27.57,-1.953,-41.03,-1.272
O=C(O)C(F)(F)F.[H][C@@]12C[C@H](C(=O)NCc3cccnc3)[C@@]([H])(CN(C(=O)NC)C1)O2,1.724,-,41.37,-
COc1cc(-n2cccc2)c(Cl)cc1C(N)=O,-6.564,-17.31,-1.746,4.854
CC(=O)Nc1ccc(-c2ccccc2NC(=O)CN)cc1,15.09,11.05,-52.76,1.284
CCC(CO)N(C/C(C)=C/c1ccco1)Cc1ccccn1 (stereo not shown),20.6,-13.46,-36.87,-10.41
Cc1noc(C)c1CN1CCO[C@H]2CN(Cc3cncn3C)C[C@H]21,-,-7.567,-,-1.062
Cn1nc(Cn2ccnc2)c2c1CN(Cc1ccoc1)C2,-,-4.933,-,-
O=C(O)CC(O)(CC(=O)O)C(=O)O.[H][C@@]12CC[C@@](O)(c3ccccn3)[C@]1([H])CN(Cc1ccccn1)C2,-6.824,-,-12.31,-
CC(C)c1nc(NC(=O)CCCn2cccc2)n(C)n1,-5.254,-4.731,5.522,-0.6048
CS(=O)(=O)NC[C@]12COC[C@H]1CN(C(=O)c1ccncn1)C2,-,-1.41,-,-2.737
Cc1cc(C(F)F)nn1C(C)C(=O)NCc1nccn1C (stereo not shown),-6.223,-10.64,-13.31,-0.9864
CC(C)OCCS(=O)(=O)c1ccccc1C#N,5.492,-6.225,-33.19,5.691
O=C(COCc1ccccc1)N1CCN(c2ccc(Cl)cn2)CC1,-1.87,0.8463,0.04025,-2.479
Cc1nc(C(C)NC(=O)c2cn(Cc3ccc(Cl)cc3)nn2)n[nH]1 (stereo not shown),7.388,0.1829,16.37,4.481
O=C(c1ccc(Oc2cccnc2)cc1)N1CCN(CCO)CC1,-7.031,10.19,-,6
CC(C)c1ncc(CN2CCC(CO)C2)cn1 (stereo not shown),-,10.1,-,3.098
c1ccc(Oc2ccc(CNCC3CNc4ccnn4C3)cn2)cc1 (stereo not shown),-20.35,3.041,59.34,12.52
CCCS(=O)(=O)N1CCN(c2cc(-n3cnc(C)c3C)ncn2)CC1,-0.7023,-13.67,-22.44,-2.303
O=C(Cc1ccc(F)cc1)NCCNS(=O)(=O)c1ccc(F)c(F)c1,0.4725,-1.175,12.49,0
Cc1noc(C)c1CN(C)c1ncnc2ccccc12,-8.857,-3.991,-33.61,7.57
O=C(C(C1CC1)C1CC1)N1CCC(n2ccnn2)CC1,0.8011,-14.21,-2.964,-0.9926
FC1(F)CCN(Cc2ccccn2)CC12CCN(c1cnccn1)C2.O=C(O)C(F)(F)F.O=C(O)C(F)(F)F.O=C(O)C(F)(F)F (stereo not shown),-9.185,-,-80.37,-
CCc1nc(CCNS(=O)(=O)c2cccc(C(=O)N(C)CC)c2)cs1,-11.65,-10.89,-51.34,2.676
CCn1c(C2CCNCC2)nn(CCCc2ccccc2)c1=O,3.523,4.362,-33.14,-7.937
Cc1nnsc1C(=O)NCc1nn(C2CCCC2)c2c1CCCC2,-0.2656,-10.89,5.038,4.087
Cc1cccc(CN2CCN(C(=O)c3cc(Cl)c[nH]c3=O)CC2)c1,0.5187,-0.6491,7.008,1.029
Cc1noc(C)c1CN1CCN(CCN(C)C)c2ncccc2C1.O=C(O)C(F)(F)F.O=C(O)C(F)(F)F.O=C(O)C(F)(F)F,-3.446,-,-,-
[H][C@]12CC[C@]([H])(CN(Cc3cscn3)C1)N(C(=O)CNC(N)=O)C2,-1.48,-,-50.24,-
[H][C@]12CC[C@]([H])(CN(CC(=O)N(C)C)C1)N(C(=O)CCn1cncn1)C2,0.1154,-,-7.527,-
CCS(=O)(=O)N1CCOC2(COCCN(c3nccs3)C2)C1 (stereo not shown),-6.523,6.767,-13.23,-7.128
O=C(O)C(F)(F)F.[H][C@@]12CN(Cc3ccco3)C[C@]1([H])C(=O)N(c1cncnc1)C2,-1.869,-,-24.43,-
CC(C)c1cc(C(=O)NCC(O)C2CCOCC2)nn1C(C)(C)C (stereo not shown),-12.24,7.347,-33.77,-1.966
Cc1cc(CN2CCOCS2(=O)=O)ccc1F,-3.924,-2.923,-14.95,-1.493
Cl.[H][C@]12CCCN[C@@]1([H])CN(C(=O)C(C)C)C2,-19.36,-,-8.782,-
Cc1cccc(CN2CCc3onc(CO)c3C2)n1,-,-5.731,-,2.195
Cc1cccc(CN2C[C@H]3OC(=O)N(CCCN4CCOCC4)[C@H]3C2)n1,-,-13.45,-,-4.464

The values are deposited in ChEMBL (CHEMBL3988442, “University of Dundee, Small-Polar-MMV Screening Library” (2021)).